Reference: publication PMC5752836
Results are given in words; binding and its absence hold for the method and conditions named. In cells and extracts the contact can be indirect. Some binding calls cover weakened binding; strength is not graded here.

Sequences of proteins named here, by UniProt entry; tags and fusion partners are left off.
UniProt P60879: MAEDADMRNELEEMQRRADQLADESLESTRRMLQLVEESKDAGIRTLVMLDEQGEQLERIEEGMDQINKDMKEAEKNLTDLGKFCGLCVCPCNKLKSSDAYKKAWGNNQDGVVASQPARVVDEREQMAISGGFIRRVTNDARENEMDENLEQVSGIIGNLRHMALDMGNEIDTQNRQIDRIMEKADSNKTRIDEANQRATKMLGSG
UniProt Q62277: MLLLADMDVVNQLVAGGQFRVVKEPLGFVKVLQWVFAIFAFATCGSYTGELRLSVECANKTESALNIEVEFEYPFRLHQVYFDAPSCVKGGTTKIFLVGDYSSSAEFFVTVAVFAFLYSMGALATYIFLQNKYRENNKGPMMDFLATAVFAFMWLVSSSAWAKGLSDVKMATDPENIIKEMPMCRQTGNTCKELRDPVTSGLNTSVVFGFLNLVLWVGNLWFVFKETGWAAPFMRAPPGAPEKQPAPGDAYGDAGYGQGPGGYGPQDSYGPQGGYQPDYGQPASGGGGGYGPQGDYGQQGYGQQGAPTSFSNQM

Biological target: T1, proline-rich transmembrane protein 2 (PRRT2) (mouse (endogenous in mouse brain)) (UniProt E9PUL5)
T1 sequence: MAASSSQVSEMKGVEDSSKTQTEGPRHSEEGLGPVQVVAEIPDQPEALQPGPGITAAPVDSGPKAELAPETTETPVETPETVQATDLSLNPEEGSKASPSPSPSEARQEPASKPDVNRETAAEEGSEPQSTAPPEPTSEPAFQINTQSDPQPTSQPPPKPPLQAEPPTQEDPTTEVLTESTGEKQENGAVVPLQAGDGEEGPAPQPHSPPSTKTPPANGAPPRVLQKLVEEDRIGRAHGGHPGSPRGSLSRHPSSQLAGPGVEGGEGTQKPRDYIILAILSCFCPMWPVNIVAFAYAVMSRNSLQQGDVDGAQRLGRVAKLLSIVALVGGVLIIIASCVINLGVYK
Assay: co-IP; mouse brain lysates in ELB buffer (100 mM Tris, 10 mM EDTA, 300 mM NaCl, 0.2% NP-40, pH 7.5), anti-PRRT2 antibodies overnight at 4 °C, Protein G-Agarose, immunoblotting; controls: Prrt2Stop lysate, WT lysate pre-incubated with the epitope peptide

Substance	binding
SNAP-25 (from UniProt P60879 1-206)	binds
SYP (from UniProt Q62277 1-314)	no binding
